From PubChem BioAssay AID445 (National Center for Advancing Translational Sciences (NCATS), 2006)
The list shows a part of the results. Further columns of the screen follow, without active or inactive calls. Most of these compounds were active or inconclusive in the main read-out, so they are no random draw. The note in brackets gives the kind of curve behind each potency; many fits are weak.

Assay: IkB Signaling
Conditions: ABC-DLBCL IkBa-CBG/CBR dual luciferase ratio (green luciferase fused to IkBa over red control in OCI-Ly3 lymphoma cells), 4 h; measured here: control luc red channel unless noted
Summary of the method: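 Luminescence ratio of IκBα-fused green versus native red beetle luciferase in OCI-Ly3 cells, 4 h post-doxycycline with compound; red signal alone, scaled from basal (0%) to zero light (-100%), flagged nonspecific or cytotoxic effects.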
With `COc1ccc(-c2nnc(CSc3nc4ccccc4c(=O)n3CC(C)C)o2)cc1OC` the AC50 was 20 µM [falling, partial curve]. In the case of `Nc1nnc(-c2ccco2)s1`, the AC50 is reported as 15.8 µM [rising, partial curve]. With `Cc1ccc(NC(=O)C(=O)NCC(c2ccc3c(c2)OCO3)N2CCN(C)CC2)cc1C` (stereo not given) the AC50 was 31.6 µM [falling, partial curve, poor fit]. With `CCOC(=O)c1c(-c2cccs2)csc1NC(=O)COC(=O)c1c(C)noc1C` the AC50 was 10 µM [falling, partial curve]. In the case of `Cc1ccccc1Cn1c(C)c(CNCCCc2ccccc2)c(C(=O)O)c1C`, the AC50 is reported as 20 µM [falling, single point]. In the case of `Cc1ccccc1Nc1c(-c2c[nH]c3ccccc23)nc2cccc(C)n12`, the AC50 is reported as 0.02 µM [falling, full curve]. In the case of `Cc1ccc(NC(=O)CCc2nc3cccnc3n2-c2ccccc2)cc1Cl`, the AC50 is reported as 15.8 µM [falling, partial curve]. With `O=c1c2sc3ccccc3c2n(Cc2ccc(Cl)cc2)c(=O)n1Cc1ccco1` the AC50 was 1.26 µM [falling, full curve, poor fit]. For `Cc1cccc(NC(=O)Cn2cnc3sc(C)c(S(=O)(=O)N4CCC(C)CC4)c3c2=O)n1`, the AC50 was 0.794 µM [falling, full curve]. In the case of `Cc1ccc(N(Cc2cccs2)C(=O)c2ccccc2[N+](=O)[O-])cc1`, the AC50 is reported as 31.6 µM [falling, single point]. With `Fc1ccc(-c2cc3nc(-c4ccccc4)cc(N4CCN(CCN5CCOCC5)CC4)n3n2)cc1` the AC50 was 1 µM [falling, full curve]. For `Clc1cccc(-n2ncc3c(NC4CCCCCC4)ncnc32)c1`, the AC50 was 12.6 µM [falling, partial curve]. For `COc1ccc(CCNC(=O)CCCCn2c(=O)c3ccccc3n(Cc3ccccc3)c2=O)cc1OC`, the AC50 was 39.8 µM [falling, single point]. In the case of `O=C(NCc1ccccc1)c1cccc(OCC(=O)N2CCN(C(=O)c3ccco3)CC2)c1`, the AC50 is reported as 20 µM [falling, partial curve]. With `CCOC(=O)c1ccc(NC(=O)CSc2ncc(S(=O)(=O)c3ccc(C)c(Cl)c3)c(=O)[nH]2)cc1` the AC50 was 20 µM [falling, partial curve]. With `CCCCN(C)c1nnc(NC(=O)Nc2ccc(Br)c(C)c2)s1` the AC50 was 20 µM [falling, single point]. In the case of `CCOc1ccc(NC(=O)Cn2cc(C(=O)c3ccc(C)cc3)c(=O)c3cc4c(cc32)OCO4)cc1`, the AC50 is reported as 10 µM [falling, partial curve]. In the case of `Brc1cccc(-c2nnn3c2nc(N2CCCCC2)c2ccccc23)c1`, the AC50 is reported as 2 µM [falling, full curve]. With `CCn1c2c(c(=O)n3ncc(C(=O)Nc4ccc(Cl)cc4C)c13)CN(Cc1ccc(OC)cc1)CC2` the AC50 was 15.8 µM [falling, partial curve]. For `Cc1ccc2nc3c(c(Nc4ccc(C)c(C)c4)c2c1)CCC3`, the AC50 was 20 µM [falling, partial curve]. For `O=C(CNS(=O)(=O)c1cccs1)N1CCN(c2ccccc2F)CC1`, the AC50 was 1 µM [falling, partial curve]. In the case of `CCCn1c(=O)c2sccc2n2c(CCCC(=O)NC3CCCCC3)nnc12`, the AC50 is reported as 31.6 µM [falling, single point]. In the case of `COCCCNC(=O)c1ccc(-n2c(-c3ccccc3)cc3c2CCCCC3)cc1`, the AC50 is reported as 12.6 µM [falling, partial curve]. With `CC(C)N(Cc1cc2ccccc2[nH]c1=O)C(=O)C1CCCCC1` the AC50 was 7.94 µM [falling, partial curve]. In the case of `CCc1nonc1NC(=O)c1oc2ccc(Cl)cc2c1C`, the AC50 is reported as 0.794 µM [rising, full curve]. In the case of `CC1=C(C(=O)OC2CCCCCC2)C(c2ccc(Cl)cc2Cl)CC(=O)N1` (stereo not given), the AC50 is reported as 25.1 µM [falling, single point]. With `Cc1cc(C)nc(N2CCCC(C(=O)Nc3nc4ccc(S(C)(=O)=O)cc4s3)C2)n1` (stereo not given) the AC50 was 20 µM [falling, partial curve]. For `COc1ccc(CNC(=O)CC2Oc3ccc(C)cc3NC2=O)cc1` (stereo not given), the AC50 was 3.16 µM [falling, partial curve, poor fit]. In the case of `COC(=O)c1cc2oc3ccccc3c2n1CC(=O)Nc1ccc(F)c(Cl)c1`, the AC50 is reported as 0.1 µM [falling, full curve]. For `CCOc1ccc(CCNC(=O)c2nn(C)c3c2CSc2ccc(C)cc2-3)cc1OCC`, the AC50 was 5.01 µM [falling, full curve]. With `Cc1cccc(Cn2c(CN3CCCC(C)C3)nc3c2c(=O)n(C)c(=O)n3C)c1` (stereo not given) the AC50 was 2 µM [falling, partial curve]. For `CCC(=O)Nc1ccc(CC)cc1-c1nc2ccccc2n(CC(=O)c2ccc(OC)cc2)c1=O`, the AC50 was 15.8 µM [falling, partial curve]. With `CC1CCCCN1C(=O)CN1CCSc2ccccc21` (stereo not given) the AC50 was 1.58 µM [falling, full curve]. For `CCc1nonc1NC(=O)c1oc2cc(C)c(C)cc2c1C`, the AC50 was 0.251 µM [rising, full curve]. With `Cc1c(Cl)cccc1NC(=O)c1oc2ccc(S(=O)(=O)N3CCC4(CC3)OCCO4)cc2c1C` the AC50 was 20 µM [falling, partial curve]. With `CCc1cccc(-n2c(=O)c3cccnc3n2CC(=O)Nc2ccc(OC)c(Cl)c2)c1` the AC50 was 0.631 µM [rising, full curve, poor fit]. For `COc1ccc(C(=O)Oc2ccc(C(c3c(C)[nH][nH]c3=O)c3c(C)[nH][nH]c3=O)cc2)cc1`, the AC50 was 31.6 µM [falling, partial curve, poor fit]. For `COc1cccc(-n2c(SCC(N)=O)nc3c(oc4ccccc43)c2=O)c1`, the AC50 was 3.16 µM [rising, partial curve, poor fit]. With `O=C(CSCc1ccc(Cl)cc1)NCC1CCCO1` (stereo not given) the AC50 was 1.26 µM [rising, partial curve] [measured here: IkB-luc green channel]. With `COc1cc(C(=O)N2CCN(c3cccc(C)c3C)CC2)cc(OC)c1OC` the AC50 was 3.16 µM [rising, partial curve] [measured here: IkB-luc green channel].
